According to patent US20230355763A1, “NANOPARTICLE VACCINES AND USES THEREOF FOR PROPHYLAXIS AND TREATMENT OF ATHEROSCLEROSIS USING PEPTIDE 210 AS AN ANTIGEN” (CEDARS-SINAI MEDICAL CENTER, priority 2022, published 2023):
No constants are given. Whether binding was seen depends on the method and setting. A result given as binding can be weak or reduced; the word gives no strength.

Tests used:
[1] = target: HLA-A*02:01 (human); assay: REVEAL binding assay (ProImmune), 9-mer peptide on HLA-A*02:01
[2] = target: HLA-A*02:01 (human); assay: REVEAL binding assay (ProImmune), screen of P210 epitopes on HLA-A*02:01

B1: P210 9-mer peptide 1, … (SEQ ID NO:2) (peptide)
peptide: KTTKQSFDL
In the case of B1, the binding [1] is reported as “binds” and the binding [2] is reported as “binds”.
